± gives the standard deviation of the averaged measurements. Most values lie at the floor of the assay. Slopes are relative: functional sequences can read slightly below zero.

The test system of the data set is Saccharomyces cerevisiae PS128 hsf1 delta, HSF1(1-493) fusion. The data set can be described thus: growth estimate (transactivation domain function in HSF1 fusion, heat-shock survival) (a.u. (slope of normalised read count over time)); higher = stronger growth at 37°C, i.e. more transactivation activity. As to conditions: library: random library. On the procedure: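 Random 60-nt DNA library encoding peptides of up to 20 aa, fused to the C-terminus of yeast HSF1 residues 1-493 (C-terminal TAD deleted) and expressed from the native HSF1 promoter on a CEN plasmid in hsf1-deleted S. cerevisiae PS128. Cells were selected at 37°C on -trp 5-FOA plates for 0, 2, 4, 6 and 8 days and amplicons were sequenced. Growth estimate is the slope of a robust linear fit of total-sum-normalised read counts (normalised to the first time point) over time, using at least 2 replicates. Sequences are classed functional (TAD activity) above a threshold of -0.13, set from stop-codon control sequences.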
ARKEG: the growth estimate was under -0.25. In the case of DLIVI it was under -0.25. Take SEWAGDPFTPHAISARMWWA: the growth estimate was -0.2. In the case of AKSDVDSLYGRCKMGQWIDL it was under -0.25; in that of YGS, under -0.25; in that of TRTKLADTLPSARVSRHGDH, under -0.25. In the case of TRSWGNSGR it was under -0.25. With SKLDQSSCTAGGPAPFSVPR, the growth estimate is under -0.25. For WLEMYNLAREVIGPTG, the growth estimate is under -0.25. As for AQCKGNKWCH, the growth estimate is under -0.25. For TDKECVPPKLVSCGPTWYLW, the growth estimate was under -0.25. The value for FSQLAPESSELNHGK was under -0.25; that for SSSAISN was under -0.25; that for RCETWSHSGSCLGRS was under -0.25. In the case of RMN it was under -0.25; in that of QMFCRSIT, under -0.25; in that of LSATNELIGTYRPSGLPRHI, under -0.25.

As to TGYGFAWPLSQVEFDGGHGL, the growth estimate is under -0.25.

Consider SYRSMALGTKEGLMEQ, for which the growth estimate was under -0.25. The value for PGSIFFKKLAMHSGWLGNNV was -0.231; that for ACIRVVAFSLMRMTHKIAGR was under -0.25; that for SLSSDHVSAVFSRPADSIFA was under -0.25. The value for DQVANIVMGGVPPENRVAPD was under -0.25; that for GIKASR was under -0.25; that for VIGR was under -0.25.

For RDVAGMHAADMPRA, the growth estimate was under -0.25. Take SWSDTRSYFRRCLRYRSIGR: the growth estimate is under -0.25. With SRPDLRDPSGRRGIRPALKG, the growth estimate is under -0.25. FLGLLLGSLACGSL: the growth estimate was under -0.25. In the case of IIQWLCVPTVGMYVAITDNR it was -0.246. On to KHPVRLPTDQSVQVWGRRPA, for which the growth estimate was under -0.25. The value for MSDVRCDGSREMRAAI was under -0.25. As to RPVWYPRSATHRCGTACPVN, the growth estimate is under -0.25.

With VCILRCGGPTSYSF, the growth estimate was under -0.25.

For the substance GMMLTSEAARAVRCASWTCR, the growth estimate was under -0.25. In the case of GVTEEAPIAIW it was under -0.25; in that of RWLWSSDPGTYALTLVICRS, under -0.25; in that of RAVMVSPPVVRRKASGR, under -0.25. In the case of SCNRKKWVVQY, the growth estimate is under -0.25. As for FPAGPLLHLLLMGIGGACKS, the growth estimate is under -0.25. In the case of RLKPASGADPIVAAHGSVST it was under -0.25; in that of PILSAVVSRPVGTFCMRRCQ, under -0.25.

With EMTVQRRGPQQSTYVIRTTQ, the growth estimate was under -0.25. In the case of DSHPTT it was under -0.25; in that of ADVLRYSYGDEHARPNDNGL, under -0.25; in that of LVRESVR, under -0.25. Take LKK: the growth estimate was under -0.25. The value for TTRFLRIHMCISHIRHWLQA was under -0.25; that for IVMIWLR was under -0.25. The value for TNKDV was under -0.25; that for SFWG was under -0.25.

For the substance KHKRHPVRGSNWSVVGYAED, the growth estimate is 0.0119. In the case of RLSPSDIIQEFNSFCLPDLL it was under -0.25; in that of GVDLVYSAMRGVRPGLLFMA, under -0.25; in that of IGKTVRVPIIRESRGLKVGP, under -0.25. In the case of LKKPPVRGA it was under -0.25. The value for AGQQARISCTLVRTYVLRRV was under -0.25. RMDNVSKRADKS: the growth estimate was 0.146. In the case of KKRACRDFRIHISEV it was under -0.25; in that of LWADRFTLRTIIA, under -0.25. With PDIPRAR, the growth estimate was under -0.25. The value for PEGPWGAPYARGALQIWIED was under -0.25. In the case of RFCA it was under -0.25; in that of SLL, -0.248 ± 0.003; in that of IMGPSYAF, -0.12. For the substance CSQVTGPWGR, the growth estimate was under -0.25. In the case of LVQPPHGSFNSARRSVASLD it was under -0.25; in that of WLHTLGSYS, under -0.25; in that of GGCQWS, under -0.25.

As to IIPCSQRRGGSHGGRAPG, the growth estimate is under -0.25. VKALLQNGGGC: the growth estimate is under -0.25. Consider RLCVRLCSCLNR, for which the growth estimate was under -0.25. In the case of ASLSWK, the growth estimate is under -0.25. Consider PWSSVTFSVGREQTSADTRW, for which the growth estimate is under -0.25. In the case of YRIFGSTRKDEHSRGGMRPW it was under -0.25; in that of YVRKSGRSPRFG, under -0.25.

Turning to TLTCVGNRSQVPLELCTNTR, the growth estimate is under -0.25. For the substance HRHPFGRNHEGMPHV, the growth estimate is under -0.25. Consider LST, for which the growth estimate was under -0.25. Turning to WPRYQYARVYTPRVADCKRS, the growth estimate was under -0.25. Take CHLRLQVDSGLLCPNHRYSW: the growth estimate is under -0.25. In the case of WARRGTGVSLEKSYGVV it was under -0.25. On to CRGVVAETPDPSRIRKASFP, for which the growth estimate was under -0.25.

On to RQYLI, for which the growth estimate was under -0.25. The value for ETIQKVQSCRTFATGTPVGR was under -0.25. Consider VYVIGSLGRASAGRVS, for which the growth estimate is under -0.25. In the case of ELTALAVIRFISKSPEPAVQ it was under -0.25; in that of GLQHGRDIRTGETVN, under -0.25. The value for IRGSFSKNA was under -0.25; that for SIHSPSPWGQDDSAILCCAL was under -0.25. As to ADGTQ, the growth estimate is under -0.25. The value for WLHAL was under -0.25; that for SRRR was under -0.25. The value for SAIGHFKVTSRMVNHGPQPG was under -0.25; that for HGDRTLSRSVQIMRSMTRVR was under -0.25.

In the case of HRIRA, the growth estimate was under -0.25.

For QFIEFTIITHRNLNDSTNIC, the growth estimate is under -0.25. In the case of WPDQLLVPEVYPLLARTRR it was under -0.25; in that of EDVRNNYKRECGSRHDDKAY, under -0.25; in that of RPGGQLTGVHSMTIGRDRRP, under -0.25. For HIIRCDIFARL, the growth estimate was under -0.25.

As for ILTVEFHHVPRQASVGFRGQ, the growth estimate is under -0.25. On to HIPRRSPKVQVP, for which the growth estimate was under -0.25.

In the case of YHMR, the growth estimate was under -0.25. In the case of NPPQGECSVPASTFSKGTAP, the growth estimate is under -0.25. Take VQMLPVAVKGDPPGALNTRR: the growth estimate is under -0.25. The value for RNLFR was under -0.25; that for GQGGDRVYCCLLT was under -0.25. The value for SARMGRALDM was -0.248; that for LFKQRVSNNTWSGSPASGTL was under -0.25. As for RWTSYSIASGGSGCTSV, the growth estimate is under -0.25.

Turning to GISEQLIGKTPANPRGRCRL, the growth estimate is under -0.25. Regarding DRFDQFRLSIAS, the growth estimate is under -0.25. The value for TCPVYSNIRHISSEMENMSS was under -0.25; that for TGFAVYDESDRGAIKV was under -0.25. For CNGLESFARKFGENIAIVPK, the growth estimate was under -0.25.

Values taken from the supplement of paper PMC5949888.
